Data: the supplement of paper PMC10849652
Some of the results follow.

By UniProt entry, the sequences of proteins in these tests, tags left out. Where a name states a change or a piece, a line headed by the entry shows the natural chain unless it says otherwise.
UniProt P45974: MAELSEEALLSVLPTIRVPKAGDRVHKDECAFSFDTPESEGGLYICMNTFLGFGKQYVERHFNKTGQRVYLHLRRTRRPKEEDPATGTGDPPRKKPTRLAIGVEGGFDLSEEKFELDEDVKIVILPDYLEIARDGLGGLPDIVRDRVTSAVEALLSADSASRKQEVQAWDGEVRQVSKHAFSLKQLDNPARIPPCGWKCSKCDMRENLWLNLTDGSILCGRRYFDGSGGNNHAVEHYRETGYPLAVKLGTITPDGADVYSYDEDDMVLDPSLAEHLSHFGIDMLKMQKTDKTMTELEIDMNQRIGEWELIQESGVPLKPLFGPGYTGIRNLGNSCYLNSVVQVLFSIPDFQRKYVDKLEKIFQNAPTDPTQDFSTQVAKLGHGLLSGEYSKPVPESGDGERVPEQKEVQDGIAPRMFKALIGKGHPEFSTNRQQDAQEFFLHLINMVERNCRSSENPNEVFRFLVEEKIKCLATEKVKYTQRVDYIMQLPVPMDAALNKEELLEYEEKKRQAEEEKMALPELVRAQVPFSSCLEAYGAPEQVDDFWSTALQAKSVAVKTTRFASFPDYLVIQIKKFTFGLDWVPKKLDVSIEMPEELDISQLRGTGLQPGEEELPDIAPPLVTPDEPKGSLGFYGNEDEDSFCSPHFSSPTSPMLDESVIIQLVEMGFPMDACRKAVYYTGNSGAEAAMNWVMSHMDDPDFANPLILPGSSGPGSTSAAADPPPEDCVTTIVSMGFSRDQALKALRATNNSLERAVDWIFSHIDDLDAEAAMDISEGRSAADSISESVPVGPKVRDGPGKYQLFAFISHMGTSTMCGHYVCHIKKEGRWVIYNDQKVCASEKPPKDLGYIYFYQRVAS
UniProt Q8N806: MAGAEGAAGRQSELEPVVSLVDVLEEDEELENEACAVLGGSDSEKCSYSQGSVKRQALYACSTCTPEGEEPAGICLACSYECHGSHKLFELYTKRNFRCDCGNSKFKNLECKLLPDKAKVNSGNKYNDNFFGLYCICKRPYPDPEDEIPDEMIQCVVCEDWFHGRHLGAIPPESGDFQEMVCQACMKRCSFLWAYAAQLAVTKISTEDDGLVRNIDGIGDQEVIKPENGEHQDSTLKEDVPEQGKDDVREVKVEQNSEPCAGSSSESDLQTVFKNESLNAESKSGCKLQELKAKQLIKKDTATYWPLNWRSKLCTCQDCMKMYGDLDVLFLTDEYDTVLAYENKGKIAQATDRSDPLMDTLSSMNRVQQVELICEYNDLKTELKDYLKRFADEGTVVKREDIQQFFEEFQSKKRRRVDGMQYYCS
UniProt Q9NYU1: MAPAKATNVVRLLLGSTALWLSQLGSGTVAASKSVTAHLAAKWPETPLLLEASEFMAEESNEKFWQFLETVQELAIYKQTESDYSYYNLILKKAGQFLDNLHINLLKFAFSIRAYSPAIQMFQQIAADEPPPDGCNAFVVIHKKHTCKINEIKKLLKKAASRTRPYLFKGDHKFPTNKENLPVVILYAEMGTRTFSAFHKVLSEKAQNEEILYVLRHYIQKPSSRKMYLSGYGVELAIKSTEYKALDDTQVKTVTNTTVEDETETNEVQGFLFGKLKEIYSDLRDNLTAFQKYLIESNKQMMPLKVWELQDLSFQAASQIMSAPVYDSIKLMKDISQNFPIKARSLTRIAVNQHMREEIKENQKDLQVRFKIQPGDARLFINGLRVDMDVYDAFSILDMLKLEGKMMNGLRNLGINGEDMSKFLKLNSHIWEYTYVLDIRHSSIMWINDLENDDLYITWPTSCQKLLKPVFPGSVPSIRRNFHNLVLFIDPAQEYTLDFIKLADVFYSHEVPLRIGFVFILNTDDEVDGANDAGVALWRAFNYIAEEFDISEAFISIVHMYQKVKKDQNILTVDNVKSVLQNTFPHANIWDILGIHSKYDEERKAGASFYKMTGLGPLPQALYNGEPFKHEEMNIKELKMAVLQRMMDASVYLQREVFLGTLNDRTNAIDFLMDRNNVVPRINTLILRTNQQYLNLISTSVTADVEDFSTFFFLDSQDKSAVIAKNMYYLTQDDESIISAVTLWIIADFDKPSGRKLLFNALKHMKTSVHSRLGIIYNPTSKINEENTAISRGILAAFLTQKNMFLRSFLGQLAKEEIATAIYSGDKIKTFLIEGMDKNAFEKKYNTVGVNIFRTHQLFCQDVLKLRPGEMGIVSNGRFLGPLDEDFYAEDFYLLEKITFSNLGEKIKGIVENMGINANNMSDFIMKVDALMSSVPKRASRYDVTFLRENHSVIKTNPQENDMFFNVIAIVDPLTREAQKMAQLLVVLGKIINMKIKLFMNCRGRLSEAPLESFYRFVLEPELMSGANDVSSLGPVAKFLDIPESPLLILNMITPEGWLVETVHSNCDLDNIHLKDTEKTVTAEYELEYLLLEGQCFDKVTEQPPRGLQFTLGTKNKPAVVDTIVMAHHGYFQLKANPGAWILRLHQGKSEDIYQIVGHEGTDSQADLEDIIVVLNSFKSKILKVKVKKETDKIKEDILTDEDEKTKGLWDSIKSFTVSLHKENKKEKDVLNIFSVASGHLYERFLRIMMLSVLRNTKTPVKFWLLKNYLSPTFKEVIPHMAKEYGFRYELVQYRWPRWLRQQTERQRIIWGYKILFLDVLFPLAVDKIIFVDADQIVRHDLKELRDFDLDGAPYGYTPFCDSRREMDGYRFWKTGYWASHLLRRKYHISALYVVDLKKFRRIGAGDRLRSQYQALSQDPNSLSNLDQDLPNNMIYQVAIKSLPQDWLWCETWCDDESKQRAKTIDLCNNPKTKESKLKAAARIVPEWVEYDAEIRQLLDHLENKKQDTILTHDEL
UniProt Q8TAA9: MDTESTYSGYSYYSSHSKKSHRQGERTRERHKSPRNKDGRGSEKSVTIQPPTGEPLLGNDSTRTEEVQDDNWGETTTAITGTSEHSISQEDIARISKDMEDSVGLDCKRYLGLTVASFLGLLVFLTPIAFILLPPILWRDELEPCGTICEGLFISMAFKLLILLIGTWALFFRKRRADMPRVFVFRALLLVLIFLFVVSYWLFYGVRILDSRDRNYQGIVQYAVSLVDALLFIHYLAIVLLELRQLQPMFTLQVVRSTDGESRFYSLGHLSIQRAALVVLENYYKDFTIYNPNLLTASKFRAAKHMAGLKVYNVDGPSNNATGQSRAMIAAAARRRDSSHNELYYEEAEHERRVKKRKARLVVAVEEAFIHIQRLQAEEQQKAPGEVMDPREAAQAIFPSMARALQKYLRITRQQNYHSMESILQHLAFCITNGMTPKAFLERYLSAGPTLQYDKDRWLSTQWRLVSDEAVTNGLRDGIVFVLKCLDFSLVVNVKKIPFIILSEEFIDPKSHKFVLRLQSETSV
UniProt Q68DE3: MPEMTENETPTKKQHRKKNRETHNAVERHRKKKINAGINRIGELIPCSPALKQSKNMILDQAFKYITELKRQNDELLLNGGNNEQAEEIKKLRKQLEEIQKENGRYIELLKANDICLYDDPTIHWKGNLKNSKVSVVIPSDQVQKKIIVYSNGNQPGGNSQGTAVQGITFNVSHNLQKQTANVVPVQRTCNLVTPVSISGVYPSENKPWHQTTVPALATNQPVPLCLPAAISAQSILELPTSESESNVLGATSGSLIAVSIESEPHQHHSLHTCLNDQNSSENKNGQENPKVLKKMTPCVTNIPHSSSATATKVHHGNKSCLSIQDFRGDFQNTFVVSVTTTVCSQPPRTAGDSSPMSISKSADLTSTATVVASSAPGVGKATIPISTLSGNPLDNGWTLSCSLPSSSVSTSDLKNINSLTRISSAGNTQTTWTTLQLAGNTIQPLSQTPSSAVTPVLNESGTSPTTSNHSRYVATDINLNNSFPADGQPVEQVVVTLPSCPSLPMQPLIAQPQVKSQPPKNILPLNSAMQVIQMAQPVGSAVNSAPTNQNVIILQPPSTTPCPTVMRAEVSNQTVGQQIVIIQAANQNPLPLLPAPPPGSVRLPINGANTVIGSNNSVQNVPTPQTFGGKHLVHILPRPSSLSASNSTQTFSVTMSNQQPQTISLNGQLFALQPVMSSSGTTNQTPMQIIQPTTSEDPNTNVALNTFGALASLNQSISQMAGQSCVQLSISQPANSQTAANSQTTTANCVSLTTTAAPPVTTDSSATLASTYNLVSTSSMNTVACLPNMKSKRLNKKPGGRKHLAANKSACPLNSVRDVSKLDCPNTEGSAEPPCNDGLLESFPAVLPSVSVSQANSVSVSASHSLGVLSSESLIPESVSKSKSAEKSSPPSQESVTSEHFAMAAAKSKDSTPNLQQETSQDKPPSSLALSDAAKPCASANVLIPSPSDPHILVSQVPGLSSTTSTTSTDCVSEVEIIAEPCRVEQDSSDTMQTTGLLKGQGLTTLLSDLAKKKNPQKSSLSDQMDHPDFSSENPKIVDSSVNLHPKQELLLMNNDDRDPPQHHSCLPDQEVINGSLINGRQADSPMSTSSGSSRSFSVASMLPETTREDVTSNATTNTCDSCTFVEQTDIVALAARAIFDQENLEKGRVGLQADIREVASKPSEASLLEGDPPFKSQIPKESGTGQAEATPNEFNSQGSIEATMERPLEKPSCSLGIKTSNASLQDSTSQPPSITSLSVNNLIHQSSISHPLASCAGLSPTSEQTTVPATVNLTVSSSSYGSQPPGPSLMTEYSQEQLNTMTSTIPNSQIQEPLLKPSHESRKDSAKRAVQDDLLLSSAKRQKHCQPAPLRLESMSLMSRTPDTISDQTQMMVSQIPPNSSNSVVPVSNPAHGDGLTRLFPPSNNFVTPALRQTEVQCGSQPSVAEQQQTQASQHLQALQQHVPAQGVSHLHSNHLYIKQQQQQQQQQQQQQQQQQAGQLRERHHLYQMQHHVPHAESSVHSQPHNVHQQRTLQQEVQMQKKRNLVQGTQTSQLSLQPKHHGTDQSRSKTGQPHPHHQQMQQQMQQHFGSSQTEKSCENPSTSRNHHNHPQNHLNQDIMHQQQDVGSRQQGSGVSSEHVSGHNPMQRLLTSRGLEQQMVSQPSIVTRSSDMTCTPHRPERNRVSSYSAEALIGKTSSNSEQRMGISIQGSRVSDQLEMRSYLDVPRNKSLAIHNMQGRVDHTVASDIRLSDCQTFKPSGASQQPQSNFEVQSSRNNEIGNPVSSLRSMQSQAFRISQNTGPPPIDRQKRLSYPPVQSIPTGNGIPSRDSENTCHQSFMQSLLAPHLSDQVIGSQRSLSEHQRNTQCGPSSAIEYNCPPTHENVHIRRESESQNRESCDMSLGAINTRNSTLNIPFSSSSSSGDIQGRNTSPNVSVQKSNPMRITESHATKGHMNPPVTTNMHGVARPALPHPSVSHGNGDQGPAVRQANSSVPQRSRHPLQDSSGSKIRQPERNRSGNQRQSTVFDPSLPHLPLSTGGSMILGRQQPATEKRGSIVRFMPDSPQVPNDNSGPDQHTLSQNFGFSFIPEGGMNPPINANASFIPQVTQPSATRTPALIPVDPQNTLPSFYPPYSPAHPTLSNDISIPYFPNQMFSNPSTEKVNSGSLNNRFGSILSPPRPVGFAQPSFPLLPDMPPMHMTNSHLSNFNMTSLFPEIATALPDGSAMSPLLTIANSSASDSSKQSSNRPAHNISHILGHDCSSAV
UniProt Q9NWZ5: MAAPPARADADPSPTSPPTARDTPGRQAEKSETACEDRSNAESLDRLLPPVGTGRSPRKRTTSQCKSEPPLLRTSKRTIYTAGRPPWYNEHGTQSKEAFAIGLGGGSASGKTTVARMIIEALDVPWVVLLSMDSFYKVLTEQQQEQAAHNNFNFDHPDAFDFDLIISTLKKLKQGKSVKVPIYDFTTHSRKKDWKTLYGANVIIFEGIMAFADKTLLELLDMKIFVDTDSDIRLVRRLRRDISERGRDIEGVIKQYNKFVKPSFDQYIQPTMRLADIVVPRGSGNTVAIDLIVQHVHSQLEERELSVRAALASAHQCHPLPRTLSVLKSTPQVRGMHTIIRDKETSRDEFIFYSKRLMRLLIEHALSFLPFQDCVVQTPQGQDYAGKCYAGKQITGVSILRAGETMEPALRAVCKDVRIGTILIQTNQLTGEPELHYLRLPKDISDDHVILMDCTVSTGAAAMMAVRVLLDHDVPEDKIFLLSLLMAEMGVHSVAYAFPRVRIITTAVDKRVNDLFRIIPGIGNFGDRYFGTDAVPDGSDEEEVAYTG
UniProt P11172: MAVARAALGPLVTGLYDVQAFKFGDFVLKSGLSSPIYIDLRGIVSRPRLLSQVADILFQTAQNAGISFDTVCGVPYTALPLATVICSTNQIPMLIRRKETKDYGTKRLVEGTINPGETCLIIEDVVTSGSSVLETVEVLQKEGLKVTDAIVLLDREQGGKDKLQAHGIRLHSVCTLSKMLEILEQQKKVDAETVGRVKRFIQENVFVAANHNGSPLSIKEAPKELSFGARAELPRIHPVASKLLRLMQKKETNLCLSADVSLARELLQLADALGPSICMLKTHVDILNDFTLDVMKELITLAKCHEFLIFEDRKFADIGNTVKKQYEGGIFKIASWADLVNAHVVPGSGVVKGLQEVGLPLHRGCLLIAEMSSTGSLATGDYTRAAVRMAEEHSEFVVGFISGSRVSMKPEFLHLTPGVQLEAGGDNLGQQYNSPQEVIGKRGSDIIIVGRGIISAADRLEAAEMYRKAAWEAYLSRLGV

Compound: c1cn2cc(-c3ccc4cn[nH]c4c3)nc(Nc3ccc(N4CCOCC4)cc3)c2n1 [entospletinib]
Assay: log2 fold change, soluble protein after heating vs DMSO (PISA); higher = thermal stabilisation; K562 cells, 10 uM, 30 min; active = over 0.2 and 3.5 SD of the protein, either way, in both replicates (recomputed)
Summary of the method: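 Aliquots of K562 cells (2×10^6 cells/mL) treated with 10 μM compound for 30 min were heated for 3 min over 48°C-58°C. After pooling and extraction in PBS with 0.5% NP-40 at 4°C, soluble protein from a 21,000xg, 90 min spin was quantified by TMTpro 16plex LC-MS/MS with channel sums equalised. Thermal stability is expressed against control samples, from duplicates, as a log2 fold change.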

log2 fold change, inactive:
USP30 (UniProt Q70CQ3) 0.064, USP5 (UniProt P45974) -0.038, UGT8 (UniProt Q16880) 0.328, UBFD1 (UniProt O14562) -0.02, VAMP2 (UniProt P63027) -0.098, UNC93B1 (UniProt Q9H1C4) 0.084, UPF1 (UniProt Q92900) -0.046, UBR7 (UniProt Q8N806) -0.015, UQCRC2 (UniProt P22695) -0.015, UGGT2 (UniProt Q9NYU1) 0.123, UNC45A (UniProt Q9H3U1) 0.058, VANGL1 (UniProt Q8TAA9) 0.107, UPRT (UniProt Q96BW1) 0.031, UQCC1 (UniProt Q9NVA1) 0.004, USF3 (UniProt Q68DE3) 0.188, VBP1 (UniProt P61758) -0.006, VAC14 (UniProt Q08AM6) 0.022, VAT1 (UniProt Q99536) -0.006, UBXN1 (UniProt Q04323) -0.013, UCKL1 (UniProt Q9NWZ5) 0.041, UIMC1 (UniProt Q96RL1) 0.078, UGP2 (UniProt Q16851) -0.004, UBR3 isoform 4 (UniProt Q6ZT12) 0.163, USP20 (UniProt Q9Y2K6) 0.09, UQCRB (UniProt P14927) 0.009, UMPS (UniProt P11172) 0.005, URM1 isoform 2 (UniProt Q9BTM9) -0.008, ULK3 isoform 4 (UniProt Q6PHR2) -0.171, UBE3C (UniProt Q15386) 0.02
